Results are given in words; binding and its absence hold for the method and conditions named. In cells and extracts the contact can be indirect. Binding calls can cover weak binding; strength is not graded here. Tags and fused reporters may be left off the sequences shown.

The source of these data is publication doi:10.1101/2025.08.05.668837.

This assay has as its target FLAG-tagged Xenopus laevis RecQL4 wildtype (FLAG-HRV3C-xRecQL4) (Xenopus laevis). The assay is described as follows: co-IP.

B1: untagged Xenopus laevis Mcm10 (protein, UniProt Q5EAW4 1-860)
chain: MEVDADLELLTSLLEENEAAERNGVVSHEASSELDEFDELFDGDEDGSYHGSDNGTEEQTIGGVEEDFTTLFGDIDDIKEEEAAASDTKKQSSSVCQEKSKDELEDELRKMQAQMKKLQEQLQKTALAKTSSPGNPKKSPENKMVQSGKTSRTSPLIERKKTDSNTVAPQLTSPTVPKAKLPDAPKRKQNLSDKSPVQKKMASFLSPPEKSSARPGQSTATQPITNTLKSPVGQQYHVEKFSGLRIRKPRVSSSEMERKMNGRKLIRLAQLQNKIATEKLEEEDWVTFGVIVKKITPQSSNNGKTFSIWRLNDLKDLDKYISLFLFGDVHKEHWKTDQGTVIGLLNANPMKPKEGTDEVCLSVDNPQKVLLMGDAVDLGTCKARKKNGDPCTQMVNLNDCEYCQYHVQAQYKKVSSKRADLQSSYSGHVPKKMARGANGLRERLCQGGFHYGGVSSMAYAATLGSTTAPKKTVQSTLSNMVVRGAEAIALEARQKIAAAKNVVQTDEFKELMTLPTPGALNLKKHLSGVSPQANCGKEGQPIQSISASTLLKQQKQQMLNARKKRAEESQKRFLESTEKSEKSSTLTSSACSVFQSPKQGAEFPNAQKMATPKLGRGFAEGDDVLFFDISPPPAPKLSTSAEAKKLLAIQKLQAKGQTLAKTDPNSIKRKRGSSSEELVAQRVASHASTSPKSPDENEPAIKKHRDQLAYLESEEFQKILNAKSKHTGILKEAEVEIQEHYFDPLVKKEQLEEKMQSIREQSCRVVTCKTCKYTHFKPKETCVSENHDFHWHNGVKRFFKCPCGNRTISLDRLPKKHCSTCGLFKWERVGMLKEKTGPKLGGETLLPRGEEHGKFLNSLK
As to B1, the binding entry is recorded as “binds”.
